# Assay results published in PubChem BioAssay (EPA / NIEHS).
# Inconclusive results, whose numbers are uncertain, are shown with a selection of clear calls. For part of these data: A potency beside an inconclusive call is a rough fit, not a confirmed value. The source made the active and inactive calls. Rule for the calls: active = hit-call score of the fitted dose curve at least 0.9, where 1 is the maximum; inconclusive = response in the unintended direction; inactive = score below 0.9.
# Key:
# [1] = Tanguay_ZF_120hpf_BRAI_legacy: (Legacy) Oregon State University Tanguay Lab 120 Hour Post-fertilization zebrafish Assay for Brain Malformation (AID 2283641)
# In short: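 Brain malformation in Tropical 5D zebrafish was recorded as a binary endpoint after static compound exposure from early development to 120 hpf at 28C. Activity was analysed against DMSO as negative control.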
# [2] = Tanguay_ZF_120hpf_SOMI_legacy: (Legacy) Oregon State University Tanguay Lab 120 Hour Post-fertilization zebrafish Assay for Somite Malformation (AID 2283647)
# In short: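 5D WT zebrafish; chorion removed 4 hpf; 1 embryo/well from 6 hpf; static exposure to 120 hpf, 28C, 0.64% DMSO final. Endpoint: somite malformation, binary, brightfield. Mortality excluded.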
# [3] = Tanguay_ZF_120hpf_PFIN_legacy: (Legacy) Oregon State University Tanguay Lab 120 Hour Post-fertilization zebrafish Assay for Pectoral Fin Malformation (AID 2283648);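 note: each larva judged yes or no for fin defect by brightfield with dead larvae skipped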
# In short: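 Scoring of pectoral fin malformation was binary, made at 120 hpf on larvae exposed statically from 6 hpf after enzymatic chorion removal. Activity was fitted upward relative to DMSO controls at 0.64% (vol/vol).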
# [4] = Tanguay_ZF_120hpf_CFIN_legacy: (Legacy) Oregon State University Tanguay Lab 120 Hour Post-fertilization zebrafish Assay for Caudal Fin Malformation (AID 2283649)
# In short: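 Embryos were collected from Tropical 5D wild-type adults and dechorionated at 4 hpf. At 6 hpf each was exposed, one per well, at 0.64% DMSO and 28C. At 120 hpf fin morphology was scored; dead embryos were excluded.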
# [5] = Tanguay_ZF_120hpf_SWIM_legacy: (Legacy) Oregon State University Tanguay Lab 120 Hour Post-fertilization zebrafish Assay for Swim Bladder Malformation (AID 2283654);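 note: swim bladder malformation in each larva scored yes or no under brightfield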
# In short: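 Static waterborne exposure of single dechorionated Tropical 5D zebrafish embryos, 6–120 hpf, 28C, 0.64% DMSO final. Read-out: swim bladder malformation, present/absent, relative to DMSO negative control; trimethyltin chloride 5uM served as positive control.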
# [6] = Tanguay_ZF_120hpf_TRUN_legacy: (Legacy) Oregon State University Tanguay Lab 120 Hour Post-fertilization zebrafish Assay for Truncated Body (AID 2283655)
# In short: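 5D wild-type larvae; pronase dechorionation; static exposure 6→120 hpf, 28C; DMSO 0.64% final; 5uM trimethyltin chloride positive control. Readout: presence/absence of truncated body, analyzed relative to DMSO.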
# [7] = Tanguay_ZF_120hpf_TR_legacy: (Legacy) Oregon State University Tanguay Lab 120 Hour Post-fertilization zebrafish Assay for Touch Response (AID 2283667)
# In short: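 Readout is presence or absence of touch response in 120 hpf zebrafish larvae, assessed by brightfield observation after continuous static exposure at 28C. Final vehicle was 0.64% (vol/vol) DMSO.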
# [8] = Tanguay_ZF_120hpf_PE_legacy: (Legacy) Oregon State University Tanguay Lab 120 Hour Post-fertilization zebrafish Assay for Pericardial Edema (AID 2283640);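 for AC50: potency for increased incidence of pericardial edema versus DMSO baseline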
# In short: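 Read-out is the presence or absence of pericardial edema at 120 hpf under brightfield, with gain of signal fitted against DMSO controls. Larvae (5D wild-type) were statically exposed at 28C with 0.64% final DMSO.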
# [9] = Tanguay_ZF_120hpf_NC_legacy: (Legacy) Oregon State University Tanguay Lab 120 Hour Post-fertilization zebrafish Assay for Notochord and Tail Malformation (AID 2283656)
# In short: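 Binary notochord-distortion calls, made by brightfield inspection, form the read-out; activity is fitted in the positive direction against DMSO. Exposure ran statically from 6 to 120 hpf at 28C with 0.64% DMSO.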
# [10] = Tanguay_ZF_120hpf_CIRC_legacy: (Legacy) Oregon State University Tanguay Lab 120 Hour Post-fertilization zebrafish Assay for Circulatory Malformation (AID 2283651)
# In short: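 Binary circulatory-malformation call at 120 hpf via brightfield imaging, relative to DMSO controls. Embryos (5D strain, chorion removed) received static, light-shielded exposure at 28C.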
# [11] = CCTE_Simmons_CellTiterGLO_HEK293T: Viability Assessment in CCTE's Assays for Thyroperoxidase (TPO) Inhibition, Simmons Lab (AID 2283665)
# In short: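 ATP depletion measured in HEK293T cells after 24 h dosing (8 concentrations, 5 nM–87.5 uM final; DMSO 0.5%) using CellTiter-Glo luminescence; curves fit for loss of signal against DMSO baseline.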
# [12] = Tanguay_ZF_120hpf_PIG_legacy: (Legacy) Oregon State University Tanguay Lab 120 Hour Post-fertilization zebrafish Assay for Pigmentation Malformation (AID 2283650)
# In short: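 Endpoint is incidence of abnormal pigmentation at 120 hpf in dechorionated 5D zebrafish exposed singly from 6 hpf at 28C, DMSO vehicle at 0.64%. Embryos dying by 24 or 120 hpf are excluded from scoring.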
smiles,measurement,setting,value
CCc1nn(C2CCCCC2)c2cc(C3(C#N)CCC(C(=O)O)CC3)ccc12 (stereo unspecified),AC50,[1],active: 2.71 µM
same,AC50,[2],active: 0.506 µM
same,AC50,[3],active: 0.563 µM
same,AC50,[4],active: 0.15 µM
same,AC50,[5],active: 0.419 µM
same,AC50,[6],active: 0.171 µM
same,AC50,[7],active: 2.48 µM
C/C=C/C=C/C(=O)O,outcome,[8],inactive
same,AC50,[6],inconclusive: 102 µM
CS(=O)(=O)c1ccc([C@@H](C[C@H]2CCC(=O)C2)C(=O)Nc2cnccn2)cc1Cl,AC50,[1],inconclusive: 27.1 µM
Cc1ccc(N(C)C)cc1,AC50,[8],inconclusive: 8.48 µM
same,AC50,[1],inconclusive: 10.8 µM
same,outcome,[3],inactive
same,AC50,[4],inconclusive: 2.2 µM
same,outcome,[9],inactive
same,AC50,[7],inconclusive: 149 µM
CN(C)C=O,AC50,[8],inconclusive: 191 µM
same,outcome,[1],inactive
same,outcome,[4],inactive
same,AC50,[9],inconclusive: 32.2 µM
NC(N)=O,AC50,[8],inconclusive: 202 µM
same,AC50,[10],inconclusive: 4.23 µM
CC1=C(/C=C/C(C)=C/C=C/C(C)=C/CO)C(C)(C)CCC1,AC50,[1],inconclusive: 0.171 µM
O=C1NC(=O)C(c2ccccc2)(c2ccccc2)N1,outcome,[1],inactive
COc1ccc(C)cc1N,AC50,[8],inconclusive: 136 µM
same,outcome,[6],inactive
same,AC50,[9],inconclusive: 28.3 µM
CCn1nc(C)c2c1C(=O)NCC(c1ccc(O)cc1)=N2,AC50,[8],inconclusive: 4.66 µM
same,outcome,[11],inactive
CN[C@H]1CC[C@@H](c2ccc(Cl)c(Cl)c2)c2ccc(S(N)(=O)=O)cc21,AC50,[8],inconclusive: 1.75 µM
same,AC50,[2],inconclusive: 202 µM
same,outcome,[5],inactive
Cc1ccc(C(C)C)c(O)c1,AC50,[1],inconclusive: 24.5 µM
same,AC50,[2],inconclusive: 19 µM
same,outcome,[12],inactive
same,AC50,[5],inconclusive: 35.2 µM
Cc1nc(C)nc(N2C[C@@H](C)N(c3ccnc([C@@H](C)O)n3)[C@@H](C)C2)n1,outcome,[8],inactive
same,outcome,[12],inactive
Cc1cc(F)ccc1-c1cc(N2CC[C@@H](O)[C@H]2CO)ncc1N(C)C(=O)C(C)(C)c1cc(C(F)(F)F)cc(C(F)(F)F)c1,AC50,[8],inconclusive: 165 µM
same,AC50,[1],inconclusive: 1.89 µM
same,AC50,[3],inconclusive: 0.0919 µM
Clc1nc(Cl)c(Cl)c(Cl)c1Cl,AC50,[8],inconclusive: 51.4 µM
same,outcome,[6],inactive
CC=Cc1ccc(O)c(OC)c1,AC50,[1],inconclusive: 30.1 µM
same,AC50,[2],inconclusive: 39.4 µM
same,outcome,[12],inactive
same,AC50,[10],inconclusive: 0.0112 µM
same,AC50,[6],inconclusive: 32.9 µM
same,AC50,[7],inconclusive: 0.847 µM
CCOCCO,AC50,[2],inconclusive: 0.217 µM
same,AC50,[3],inconclusive: 202 µM

# Part of the list above, as tab-separated lines:
smiles	measurement	setting	value
CCc1nn(C2CCCCC2)c2cc(C3(C#N)CCC(C(=O)O)CC3)ccc12 (stereo unspecified)	AC50	[5]	active: 0.419 µM
CC=Cc1ccc(O)c(OC)c1	AC50	[10]	inconclusive: 0.0112 µM
